Record: PubChem BioAssay AID1224830 (NIAID, 2016)
Shown is a random part of about 18,000 reagents tested. About 2,900 of them (16%) were called active. 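Calls are made per well; low scores hint the gene aids the LPS response, high scores that it dampens it.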 Repeated entries: four replicate wells of each siRNA pool.

- Aim: 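Genes whose knock-down alters the TNF-alpha reporter response to LPS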 (primary screen)
- Cells: human THP-1 monocytic leukaemia cells, TNF dual-luciferase reporter clone, PMA-differentiated to macrophage-like cells
- Reagent: siRNA pool against human genes, 50 nM
- Time to read-out: LPS for 4 h, given about 3 days after siRNA transfection
- Challenge: bacterial LPS (TLR4 ligand), 10 ng/ml
- Measured: 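Ratio of firefly to renilla light, scaled to the plate median and expressed as a robust z-score per replicate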
- Reading the numbers: TNF reporter robust z-score: higher = stronger TNF reporter response to LPS
- Hit rule: 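a well is active when its z-score exceeds 2.8 or falls below -1.5; control wells carry no call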

gene symbol	TNF reporter robust z-score	outcome
IL18R1	-0.07	inactive
IL18R1	0.04	inactive
IL18R1	0.29	inactive
IL18R1	2.62	inactive
ADH5	0.07	inactive
ADH5	0.77	inactive
ADH5	0.48	inactive
ADH5	0.98	inactive
ETFB	-0.29	inactive
ETFB	-0.66	inactive
ETFB	-0.76	inactive
ETFB	-1.53	active
MSH6	0.27	inactive
MSH6	0.36	inactive
MSH6	0.99	inactive
MSH6	0.48	inactive
EDN2	-0.39	inactive
EDN2	-0.52	inactive
EDN2	-0.84	inactive
EDN2	-0.69	inactive
HAUS2	-0.04	inactive
HAUS2	1.02	inactive
HAUS2	0.2	inactive
HAUS2	0.91	inactive
PPP3CC	-0.78	inactive
PPP3CC	0.68	inactive
PPP3CC	-1.04	inactive
PPP3CC	1.15	inactive
PARM1	0.67	inactive
PARM1	0.78	inactive
PARM1	0.48	inactive
PARM1	2.35	inactive
GLI3	4.86	active
GLI3	1.35	inactive
GLI3	1.69	inactive
GLI3	4.45	active
SPACA1	-1	inactive
SPACA1	-0.43	inactive
SPACA1	-0.18	inactive
SPACA1	-0.56	inactive
LIAT1	-1.7	active
LIAT1	-1.65	active
HSF2BP	0.25	inactive
HSF2BP	0.91	inactive
HSF2BP	-0.59	inactive
HSF2BP	0.76	inactive
PTPMT1	0.25	inactive
PTPMT1	1.33	inactive
PTPMT1	-0.33	inactive
PTPMT1	-0.55	inactive
WNT6	0.46	inactive
WNT6	2.08	inactive
WNT6	0.92	inactive
WNT6	0.83	inactive
CETN2	-1.27	inactive
CETN2	-0.93	inactive
CETN2	0.13	inactive
CETN2	-0.87	inactive
PGA5	0.15	inactive
PGA5	3.36	active
PGA5	1.23	inactive
PGA5	-0.4	inactive

Targets listed so far whose gene name starts with G or g (4):
gene symbol	TNF reporter robust z-score	outcome
GLI3	4.86	active
GLI3	1.35	inactive
GLI3	1.69	inactive
GLI3	4.45	active

Further results follow:
gene symbol	TNF reporter robust z-score	outcome
HMGN4	-0.46	inactive
HMGN4	0.47	inactive
HMGN4	-0.34	inactive
HMGN4	0.4	inactive
UMOD	2.53	inactive
UMOD	1.95	inactive
UMOD	2.4	inactive
UMOD	5.5	active
RIN3	-0.13	inactive
RIN3	-0.02	inactive
RIN3	-0.25	inactive
RIN3	0.44	inactive
ARL6IP5	-0.55	inactive
ARL6IP5	0.08	inactive
ARL6IP5	-0.91	inactive
ARL6IP5	-0.12	inactive
NPFFR2	-0.19	inactive
NPFFR2	1.55	inactive
NPFFR2	1.43	inactive
NPFFR2	0.77	inactive
CARF		inactive
CARF	1.19	inactive
CARF	2.41	inactive
CARF	4.31	active
CARF	3.34	active
TMEM167A	-0.8	inactive
TMEM167A	-0.66	inactive
TMEM167A	-0.06	inactive
TMEM167A	-0.38	inactive
CDK10	2.09	inactive
CDK10	1.97	inactive
CDK10	2.05	inactive
CDK10	1.34	inactive
SCARF1	-1.31	inactive
SCARF1	0.49	inactive
SCARF1	0.52	inactive
SCARF1	0.19	inactive
ERBIN	-0.07	inactive
ERBIN	-0.18	inactive
ERBIN	-0.25	inactive
ERBIN	0.48	inactive
APLP1	0.97	inactive
APLP1	0.96	inactive
APLP1	0.5	inactive
APLP1	0.65	inactive
EDA	-0.81	inactive
EDA	-1.02	inactive
EDA	-1.17	inactive
EDA	-0.97	inactive
